Publication PMC11651612
Results are given in words; binding and its absence hold for the method and conditions named. In cells and extracts the contact can be indirect. A yes stands for co-enrichment or nearness to the bait. Other partners may have been found. Where a sequence is shown, tags or fusion partners need not be part of it.

T1: Cdc3-mCherry (C. neoformans) (UniProt J9VUF2)
T1 sequence: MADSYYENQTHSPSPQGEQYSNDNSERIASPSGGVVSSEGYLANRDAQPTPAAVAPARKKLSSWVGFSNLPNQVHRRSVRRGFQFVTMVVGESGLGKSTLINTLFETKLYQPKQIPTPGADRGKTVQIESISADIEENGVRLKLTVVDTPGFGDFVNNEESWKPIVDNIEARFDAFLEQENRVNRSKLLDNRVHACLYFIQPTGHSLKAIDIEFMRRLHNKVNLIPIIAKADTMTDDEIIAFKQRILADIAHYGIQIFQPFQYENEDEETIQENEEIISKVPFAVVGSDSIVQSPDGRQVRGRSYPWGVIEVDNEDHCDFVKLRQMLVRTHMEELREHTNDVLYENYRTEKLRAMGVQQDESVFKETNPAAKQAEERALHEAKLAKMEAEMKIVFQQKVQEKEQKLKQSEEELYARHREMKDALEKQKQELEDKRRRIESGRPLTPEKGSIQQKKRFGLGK


Biological target: T1, Cdc3-mCherry (C. neoformans)
Assay: affinity purification with mass spectrometry; mCherry-tagged septin captured from C. neoformans lysate on RFP-Trap agarose, 4 h at 4°C, washed with TBS with 2 M urea pH 7.5; GeLC-MS/MS; untagged H99 as negative control; hits logFC >2 and adjusted p <0.001 (text-named hits <0.05); exponential cultures at ~25°C or shifted to 37°C for 2 h; N = 5

Row | binding | Binder
1 | binds | Glucosamine-6-phosphate isomerase (protein, UniProt J9VVN4 1-286) MRLTVRDTKEQVGNYIGDYIANRINSFVPTPEHKNFVLGLPTGSSPLPVYKRLVELYNEKKVSFKDVVTFNMDEYVGIPRDHPESYHTFMFKNFFSLIDINPNNTHVLNGEAEDLYQECEDYEASIKAVGGIDLFLGGIGADGHIAFNEPGSSLTSRTRIKTLAYETILDNCRFFNNDLSLVPRMALTVGVQTVMDAREVVLVVTGQNKSLALSQMIEGAVNHMVTASALQTHPWALVVCDEDATLELRVKTVKYFKSIEKVQDEVEAKYGPVASVRLGLRGPTAA
2 | binds | Homoserine O-acetyltransferase (protein, UniProt J9VIY8 1-528) MSDNTPTPQKNPDTNPYASLISQQIAIIPSFTLESGVTLNNVPVAYKTWGKLNEKADNCLVICHALTGSADVEDWWGPLLGLNKAFDPTRFFIFCGNVIGSPYGTISSVTTNPETGKPFGPEMPGSSVKDDVRLHYIILKSLGVRSVAAVVGGSMGGMTVLEYPLNTPPGFVRAIIPLATSARHSAWCISWGEAQRQSIYSDPDYKDGYYYEIEEEGGKVDLARQPARGLAAARMAALLTYRSRDSFESRFGRRAGGGKSSVPKGGVRIMGGQETTDPSVPSESDLAAKSPSWRAWREHNDGHRSAGARPISRSGSEGPAHREGDAAQAEVVKTQDVKANGNKIGTGGEAPPKIFSAQSYLRYQGDKFTGRFDANCYIHITRKLDTHDLSAPSRDTSLSSLSSGLPSSPDATEEELNARLIHALSLEPPALVIGIESDGLFTTSEQRELAAGIPDAELVVIPSPDGHDGFLLEFEAINGWVEGWLKRKMPEFYERRVINPEEYVQGEEGFGIKKESVFGEAEADVTRW
3 | binds | Scramblase-domain-containing protein (protein, UniProt J9VV27 1-487) MLHRSITASALRVGTSHPILARSIATAVPLLRQQERLPRGHVRPTRRPIRQTLLPETDERSGASQSTAAHPHAFHAYEPFDPLSTPIHASGPVDIPPDPSGVLGDSHAAREILGHESLVIVRQLEMLNVFMGFEQANRYAIHSPDGQLVGFLAEQEQGILSTISRQALRTHRPFRSVVMDRHGKPVLWIRRPFAFINSRIFVHSSEDHDSRLVGEAQQQWHPWRRRYNLFQSRESETFRQFAKVDSGFLAWDFWLKDKDDRLLASINRNFRGIGRELFTDTGQYVIRFDAAGTELDLAPGSNINVQGQTLVLPRSSDSGLTLDQRAMTLATAVSIDFDYFSRHSGSGGLGFPFFFWGGGDGSAEAQSGGRPSDVQPSPDGGAGAAAGAAAGAAGTGGMTEDELIYGRQPAQQPGNPNNDPVPPPPPGESAGGWEQFPEGLEGYDEQSAGWEQDEVMQDPWGNQGDDSGWFGGWGGGGGGGDWGDWGQ
4 | binds | Methylenetetrahydrofolate reductase (protein, UniProt J9VMK3 1-633) MPHLTSLIAAHNGPFHNYEFFPPLTDPGFVNLLDRIRRLTSPPFQAPLAVSVTWGAGGSTAEKSLELAQQVVGMGVEVILHLTCTNMPKDKVDFALRRCKDLGISNILALRGDPPREEEYAINPTSTPDFFKHADDLVRYIRQTHGDYFCIGVAGYPNPHPDSESEEEDFKWFKAKCDAGADFIVTQLFYDVDVFLEWVKTCRAKGINQPIIPGIMPIQNYASFRRLVNLTKCPVPDSITSDLQPISSDDATVKRYGAELATKMVNQIIGSGLVPGVHFCTLNLEKSVRKILDNLGWSAASKASENEGVVKNKLIEDDSRAVNGIPINGKADTAQSPAKNLSISPSEANQLAQLGLTSTTLPPAPKTGLGAQGATGEDSWDEFPNGRFTDVRSPAYGEIDGWGSGLKITAAQALKEWGVPISTSDLSALFTAYLHSDPKHLTTPFCDLPLSPESHMILPHLLALNSAKVQHWTVGSQPAVDAARSEDEIVGWGPRGGYVFQKAFVEFFVTENEVNRLKEKVKKEGKGLITMYAANRKGDFKSNTDKDSVNAVTWGVFPGQEIAQSTIIEETSFLAWKEEAFDIWTEWSLLYPRNTPSRKLLEGIANEWWLVSLIHHDYKDQDALWRFLLEDLQ
5 | binds | Histone deacetylation protein Rxt3 (J9W095) (protein, UniProt J9W095 1-1165) MHPYGKLPQPQGTSNATSPPLPTATPASGPPPNPLRPSYGLVTDRDRDRERQTLGNPYSYPSSLQRPDPPSSSSSSHSHQQRHQHHHHHHHHPSGASSAGSTPRDERTNPYAPPPPGASAGRKPDMLGVGLGAGLGRLSGGYGLFGNSPFREQEMRDRERQERIQRERERDLKPPVPTSPTQRASISTTPGNSYPRPSLPPSPTNTIRGGLPASNTVTSKPSISPQLPPASAGSASASAARPSLPLPNFSSLGSRSLPSPFERDTRERSASGSAHPSPAVPTTQEVPPAVGGHARSLSNSSAREIPGLSGNDRSPPKPSAPSTARSLYAGGPPPLSGSQGSRDREVQRSPVTRAPTAASPREPSRDNISPPVAASTAKPPSSQAPPASGSLSGAPTSGRGPYTSSYTYPSNPAYAGSFGGFGLSSFGGYGAFGGPRWDHEREREAREARDARERVEREGKRDEEDKRKKEIERQREKEREEREREKWKAVREQDQRERERRSSLSTPSAAPGSSVATARPPDPYRRNTGSFEGKPSSGYTRHIEVLNHPDPSAQPAAASQNATNPAYERETSVIQQVAPTREPRPYGYKPEPVARETPPVQPPIREPAVSQMPRESLSSTAGREPRPEREYYQTVPPSAPVIPPIPVNAPVQPPREKRSRMDAVVEDAQVAHQAQQAQRRSSQAKSKRRKLEEEKMTQAHHGMGHSHASYGNHNVHGRHSPVMDKRDFASLAQLPQKRVEVSSAPVEAWLKGLPSLSRVIGTIDYSGKPFTLVKTGLVKPENEGGLIIVRIGGGFLGRGWRVRGEPGWEDASTKQVGNVVCGAQDPERACWGTDVYTDDSDLGLILVHAGWIRWSALPSLRSPQDRKKDEQEFINVTVRLVPRLVRYIGTERNGLKTRGWGNGHDGSSVVVERVERVKIDRKYLASRKRKARISEWVHQRALVCPIPSSKQEDEKMKETILLTTTVPTESLILSAINVSGKDVTVTGAFKYSPDVLKGWLDVPIEGDELDKSLWGYKLILEGSGETYQISMNKESTYKYPLINLTQLLPSDTGPKEIFASHPASGIYLWDGGFAAQIQGEKGILFKVEKFKWEKLKEGEVGAWAKEVEEVVPAVEEIADDVPVEEEGESAPQGDHEMAVDIAEVNGANGINGHVHMKEEQMDVDG
6 | binds | Histone deacetylation protein Rxt3 (T2BPP0) (protein, UniProt T2BPP0 1-1163) MHPYGKLPQPQGTSNATSPPLPTATPASGPPPNPLRPSYGLVTDRDRDRERQRNPYSYPSSLQRPDPPSSSSSSHSHQQRHQHHHHHHHHPSGASSAGSTPRDERTNPYAPPPPGASAGRKPDMLGVGLGAGLGRLSGGYGLFGNSPFREQEMRDRERQERIQRERERDLKPPVPTSPTQRASISTTPGNSYPRPSLPPSPTNTIRGGLPASNTVTSKPSISPQLPPASAGSASASAARPSLPLPNFSSLGSRSLPSPFERDTRERSASGSAHPSPAVPTTQEVPPAVGGHARSLSNSSAREIPGLSGNDRSPPKPSAPSTARSLYAGGPPPLSGSQGSRDREVQRSPVTRAPTAASPREPSRDNISPPVAASTAKPPSSQAPPASGSLSGAPTSGRGPYTSSYTYPSNPAYAGSFGGFGLSSFGGYGAFGGPRWDHEREREAREARDARERVEREGKRDEEDKRKKEIERQREKEREEREREKWKAVREQDQRERERRSSLSTPSAAPGSSVATARPPDPYRRNTGSFEGKPSSGYTRHIEVLNHPDPSAQPAAASQNATNPAYERETSVIQQVAPTREPRPYGYKPEPVARETPPVQPPIREPAVSQMPRESLSSTAGREPRPEREYYQTVPPSAPVIPPIPVNAPVQPPREKRSRMDAVVEDAQVAHQAQQAQRRSSQAKSKRRKLEEEKMTQAHHGMGHSHASYGNHNVHGRHSPVMDKRDFASLAQLPQKRVEVSSAPVEAWLKGLPSLSRVIGTIDYSGKPFTLVKTGLVKPENEGGLIIVRIGGGFLGRGWRVRGEPGWEDASTKQVGNVVCGAQDPERACWGTDVYTDDSDLGLILVHAGWIRWSALPSLRSPQDRKKDEQEFINVTVRLVPRLVRYIGTERNGLKTRGWGNGHDGSSVVVERVERVKIDRKYLASRKRKARISEWVHQRALVCPIPSSKQEDEKMKETILLTTTVPTESLILSAINVSGKDVTVTGAFKYSPDVLKGWLDVPIEGDELDKSLWGYKLILEGSGETYQISMNKESTYKYPLINLTQLLPSDTGPKEIFASHPASGIYLWDGGFAAQIQGEKGILFKVEKFKWEKLKEGEVGAWAKEVEEVVPAVEEIADDVPVEEEGESAPQGDHEMAVDIAEVNGANGINGHVHMKEEQMDVDG
